Source: PubChem BioAssay AID493246 (Drosophila RNAi Screening Center, 2011)

Assay: 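Genes fly cells need to grow and stay alive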 (primary screen)
Cells: Drosophila Kc and S2R+ cells
Knock-down reagent: long dsRNA against Drosophila genes
Detection: 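Raw, unnormalised count of remaining cells in each well; per-plate z-scores of cell number underlie the calls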
Scale: Kc cell number and S2R+ cell number: higher = more cells remaining
Rule for the call: 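Counted as a hit if cell number falls by a z-score of at least 3 within its plate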
The screen tested about 21,000 reagents; this is a random part of those that have a named target and a result. Over the whole deposit, 429 (2%) got an active call. 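Values are raw and not normalised between plates; calls rest on per-plate z-scores that were not deposited.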 Not given: the amount of reagent, the time to read-out.

| target gene | amplicon | Kc cell number, rep 1 | Kc cell number, rep 2 | S2R+ cell number, rep 1 | S2R+ cell number, rep 2 | outcome |
| --- | --- | --- | --- | --- | --- | --- |
| mRpS26 | DRSC10823 | 1.17e6 | 1.25e6 | 1.17e6 | 1.30e6 | inactive |
| CG2983 | DRSC00558 | 1.52e6 | 1.78e6 | 1.10e6 | 1.15e6 | inactive |
| CG7943 | DRSC16351 | 5.20e5 | – | 8.31e5 | – | inactive |
| Cyp6a15Psi | DRSC07377 | 1.49e6 | 1.60e6 | 1.28e6 | 1.43e6 | inactive |
| CG42539 (retired record) | DRSC13691 | 1.09e6 | 1.46e6 | 1.14e6 | 1.16e6 | inactive |
| CG12818 | DRSC14556 | 1.65e6 | 1.49e6 | 1.19e6 | 1.29e6 | inactive |
| elgi | DRSC10242 | 1.54e6 | 1.54e6 | 1.31e6 | 1.33e6 | inactive |
| CG13049 | DRSC09930 | 1.38e6 | 1.40e6 | 1.31e6 | 1.36e6 | inactive |
| Ace | DRSC12959 | 1.36e6 | 1.57e6 | 1.01e6 | 1.15e6 | inactive |
| Ace | DRSC14100 | 1.67e6 | 1.74e6 | 1.42e6 | 1.54e6 | inactive |
| Vps60 | DRSC10610 | 1.24e6 | 1.36e6 | 1.19e6 | 1.27e6 | inactive |
| out | DRSC19347 | 1.65e6 | 1.68e6 | 1.17e6 | 1.31e6 | inactive |
| p120ctn | DRSC07753 | 1.37e6 | 1.29e6 | 1.01e6 | 1.25e6 | inactive |
| CG14312 | DRSC14791 | 1.33e6 | 1.31e6 | 1.03e6 | 1.10e6 | inactive |
| Cp7Fb | DRSC18034 | 1.42e6 | 1.43e6 | 1.08e6 | 1.16e6 | inactive |
| CG17192 | DRSC15186 | 1.72e6 | 1.74e6 | 1.05e6 | 1.22e6 | inactive |
| CG11475 | DRSC04113 | 1.31e6 | 1.38e6 | 1.01e6 | 1.03e6 | inactive |
| S2P | DRSC07311 | 1.57e6 | 1.60e6 | 1.29e6 | 1.48e6 | inactive |
| CG33635 | DRSC00006 | 1.62e6 | 1.66e6 | 1.03e6 | 1.10e6 | inactive |
| Nlg3 | DRSC12477 | 1.67e6 | 1.69e6 | 1.14e6 | 1.36e6 | inactive |
| Nlg3 | DRSC12524 | 1.61e6 | 1.94e6 | 1.27e6 | 1.36e6 | inactive |
| Nlg3 | DRSC12540 | 1.54e6 | 1.73e6 | 1.16e6 | 1.29e6 | inactive |
| Nlg3 | DRSC12574 | 1.65e6 | 1.83e6 | 1.33e6 | 1.51e6 | inactive |
| Syt12 | DRSC19359 | 1.60e6 | 1.49e6 | 1.12e6 | 1.19e6 | inactive |
| CG14073 | DRSC10078 | 1.71e6 | 1.81e6 | 1.26e6 | 1.42e6 | inactive |
| CG14903 | DRSC15024 | 1.47e6 | 1.50e6 | 1.08e6 | 1.28e6 | inactive |
| GstE2 | DRSC06672 | 1.83e6 | 1.84e6 | 1.18e6 | 1.35e6 | inactive |
| ppk23 | DRSC20110 | 1.47e6 | 1.47e6 | 1.00e6 | 1.04e6 | inactive |
| LSm3 | DRSC15920 | 1.49e6 | 1.52e6 | 9.98e5 | 1.11e6 | inactive |
| CG30340 | DRSC05167 | 1.47e6 | 1.50e6 | 9.11e5 | 1.07e6 | inactive |
| Fcp1 | DRSC04121 | 1.37e6 | 1.47e6 | 1.17e6 | 1.22e6 | inactive |
| CG5026 | DRSC10470 | 1.35e6 | 1.39e6 | 1.21e6 | 1.16e6 | inactive |
| CG17121 | DRSC15176 | 1.70e6 | 1.63e6 | 9.86e5 | 1.14e6 | inactive |
| CG5645 | DRSC10532 | 1.48e6 | 1.50e6 | 1.27e6 | 1.19e6 | inactive |
| CG3534 | DRSC15494 | 1.47e6 | 1.52e6 | 1.22e6 | 1.30e6 | inactive |
| CkIIalpha-i3 | DRSC08651 | 1.12e6 | 1.44e6 | 9.36e5 | 9.92e5 | inactive |
| ssp5 | DRSC14955 | 1.51e6 | 1.54e6 | 1.27e6 | 1.30e6 | inactive |
| CG17169 | DRSC20905 | 1.53e6 | 1.61e6 | 1.14e6 | 1.32e6 | inactive |
| CG17344 | DRSC02607 | 1.78e6 | 1.85e6 | 1.15e6 | 2.27e5 | inactive |
| Hmg-2 | DRSC04554 | 1.26e6 | 1.36e6 | 1.03e6 | 1.10e6 | inactive |

6 entries from above, reformatted:
target gene | amplicon | Kc cell number, rep 1 | Kc cell number, rep 2 | S2R+ cell number, rep 1 | S2R+ cell number, rep 2 | outcome
CG13049 | DRSC09930 | 1.38e6 | 1.40e6 | 1.31e6 | 1.36e6 | inactive
Ace | DRSC12959 | 1.36e6 | 1.57e6 | 1.01e6 | 1.15e6 | inactive
Ace | DRSC14100 | 1.67e6 | 1.74e6 | 1.42e6 | 1.54e6 | inactive
Vps60 | DRSC10610 | 1.24e6 | 1.36e6 | 1.19e6 | 1.27e6 | inactive
out | DRSC19347 | 1.65e6 | 1.68e6 | 1.17e6 | 1.31e6 | inactive
p120ctn | DRSC07753 | 1.37e6 | 1.29e6 | 1.01e6 | 1.25e6 | inactive
